Assay results published in PubChem BioAssay AID602296 (Broad Institute, 2012).
The whole screen tested about 2,000 compounds, of which about 190 (9.5%) were called active. Roughly 14% stayed inconclusive and do not appear here.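 How the source made its calls: active means fitted activation curve crossing 40% at a concentration no higher than the sample's top valid tested dose; inconclusive means flat fitted curve at 30% to 70% activation, or poor curve fit; inactive means signal decrease, flat curve within 30%, or the rest.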 This part holds few or none of the hits.

Assay: sustained heat shock response element induction – cell-based, mouse, luciferase, cherry-pick, dose, confirmation (AID 602296);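 further: test compounds applied by themselves with no MG132 co-treatment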
Conditions: NIH3T3-HGL HSF-1 response element luciferase, 48 h; at 26 µM (top of the series) unless noted

SMILES | activation
O=C(Nc1c(S(=O)(=O)c2ccc(Cl)cc2)csc1Br)c1ccccc1Cl | inactive: 12.2%
CCCNC(=O)c1c(CSc2ccc(Cl)cc2)noc1C(=O)NCc1ccccc1 | inactive: -59.7%
O=C(NCCc1nc2ccccc2[nH]1)c1ccc(Cl)c([N+](=O)[O-])c1 | inactive: -7.69%
Cc1cccc(C)c1NCc1nnc(SCC(=O)Nc2nc(-c3ccccc3)cs2)n1-c1ccccc1 | inactive: 11.9%
CCOC(=O)NC(=O)/C(C#N)=N/Nc1c(F)cccc1F | inactive: -8.71%
COc1ccc(C(O)(C(=O)NNc2ccc(C)cc2)c2cccs2)cc1 (configuration not stated) | inactive: -27.3%
O=C(NNc1c(F)c(F)cc(F)c1F)c1ccc(Cl)nc1 | inactive: 7.76%
CCn1c(SCC(=O)N/N=C/C=C/c2ccco2)nc2ccccc21 | inactive: 9.59%
CCOc1cc(/C=C2/C(=O)ON=C2C)ccc1OCc1ccc(F)cc1 | inactive: 44.8%
CCOC(=O)C1=C(CN2CCc3ccccc32)NC(=O)NC1c1ccc(Cl)cc1 (configuration not stated) | inactive: -89.3%
Cc1sc2nc(CSc3cccc(C(F)(F)F)c3)[nH]c(=O)c2c1C | inactive: -6.05%
O=C(NN1C(=O)C2C(C1=O)C1C=CC2C12CC2)c1ccc(Cl)cc1 (configuration not stated) | inactive: -3.81%
COc1ccc(CN2CCNC(=O)C2CC(=O)NCC2CCOCC2)cc1C (configuration not stated) | inactive: -12.1%
COc1cccc(/C=N/Nc2ccc([N+](=O)[O-])cn2)c1O | inactive: -99.1%
Cc1cc2nc(CCN(C(=S)NCC3CCCO3)C3CCCC3)[nH]c2cc1C (configuration not stated) | inactive: 0.103%
O=C(O)c1cccc(S(=O)(=O)N2CCC(n3nnc4cc(C(F)(F)F)ccc43)CC2)c1 | inactive: 8.8%
CN1CC=C2C(C#N)=C(N)C(C#N)(C#N)C(c3cccc(Cl)c3Cl)C2C1 (configuration not stated) | inactive: 7.89%
CCOc1ccc(N2CC(O)=C(c3nc4ccccc4c(=O)[nH]3)C2=N)cc1 | inactive: 3.58%
Cc1cc(SCC(=O)N/N=C/c2ccc(O)c(O)c2)c(C)cc1Br | inactive: -70.1%
O=C(Cc1ccccc1)Nc1cc(Cl)ccc1Sc1ccccc1 | inactive: 1.42%
O=C(CN1C(=O)NC(Cc2c[nH]c3ccccc23)C1=O)Nc1cccc(S(=O)(=O)N2CCOCC2)c1 (configuration not stated) | inactive: -5.34%
CNC(=S)N(Cc1ccc(Cl)cc1)Cc1cccs1 | inactive: -9.02%

2 successive compounds from above:
SMILES | activation
CCOc1cc(/C=C2/C(=O)ON=C2C)ccc1OCc1ccc(F)cc1 | inactive: 44.8%
CCOC(=O)C1=C(CN2CCc3ccccc32)NC(=O)NC1c1ccc(Cl)cc1 (configuration not stated) | inactive: -89.3%

(next part)

SMILES | activation
Cc1ccc(S(=O)(=O)NC2c3cccc4cccc(c34)C2Sc2nncn2C)cc1 (configuration not stated) | inactive: -12.1%
O=c1[nH]c(Nc2ccccc2Cl)cc2ccccc12 | inactive: -1.6%
CCC(C)(C)n1nnnc1C(c1cc2cc(C)cc(C)c2[nH]c1=O)N1CCN(Cc2ccc3c(c2)OCO3)CC1 (configuration not stated) | inactive: 2.83%
CCN(C(=O)COC(=O)c1c2c(nc3ccccc13)/C(=C/c1ccccc1)CC(C)C2)C1CCS(=O)(=O)C1 (configuration not stated) | inactive: -90.4%
CC(C)Cn1c(N)c(C(=O)COC(=O)c2ccc([N+](=O)[O-])o2)c(=O)n(C)c1=O | inactive: -24.4%
CCOc1ccc(C(=O)N2CCN(S(=O)(=O)c3cccs3)CC2)c(OCC)c1 | inactive: -10.2%
O=[N+]([O-])c1cccnc1S(=O)(=O)c1ccccc1 | inactive: -107%
O=c1c2ccccc2nc(SCc2cn3ccsc3n2)n1-c1ccccc1 | inactive: -37.9%
CN(C)/C=C/C(=O)c1cccc(Oc2ncccn2)c1 | inactive: 5.17%
CCc1ccc(N(C(=O)c2snc(C(N)=O)c2N)C(C(=O)NCCC(C)C)c2c[nH]c3ccccc23)cc1 (configuration not stated) | inactive: -8.71%
O=C(CN1C(=O)NC2(CCCc3ccccc32)C1=O)Nc1cccc(S(=O)(=O)N2CCCCC2)c1 (configuration not stated) | inactive: -43.3%
COC(=O)c1sc(N)c(C(=O)OC)c1CSc1nc2sc3c(c2c(=O)n1C)CCC3 | inactive: -5.02%
O=S(=O)(/N=C(/Nc1cccc2ccccc12)c1ccccc1)c1ccc(F)cc1 | inactive: -0.076%
N#C/C(=C\c1ccc(Sc2nc3ccccc3[nH]2)o1)c1ccccc1 | inactive: -79.4%
Cc1sc2nc(C3CC3)nc(SCC(=O)N3CCc4ccccc4C3)c2c1C | inactive: -14.7%
Cc1cccc(/C=N\NC(=O)c2csnn2)c1 | inactive: 20.4%
Cc1nc(SCC(=O)c2ccccc2)c(C#N)c(-c2ccco2)c1C(=O)NCc1ccco1 | inactive: 132%
O=c1oc2ccccc2c(NC2CCCCC2)c1NS(=O)(=O)c1ccc(Cl)cc1 | inactive: -45%
COc1ccc(C2CC(c3cccs3)=NN2c2nc(C)c(C(C)=O)s2)cc1OC (configuration not stated) | inactive: -16.6%
COc1cc(/C=N/N2CCN(C3c4ccccc4-c4ccccc43)CC2)cc(OC)c1OC | inactive: -3.27%
O=C(NCCN1Cc2ccccc2C1=O)c1cccs1 | inactive: -1.13%
COc1ccc(S(=O)(=O)Nc2ccccc2C(F)(F)F)cc1 | inactive: -25.4%

SMILES | activation
COc1ccc(S(=O)(=O)Cc2ccc(C(=O)NCCCN(C)c3ccccc3)o2)cc1 | inactive: -9.77%
CC(CCC(=O)O)C1CC[C@H]2C3CCC4CC(=O)CCC4(C)[C@H]3CC(=O)C12C (some centres not stated) | inactive: 18%
O=C(CC1C(=O)N(Cc2ccccc2)C(=S)N1CCN1CCOCC1)Nc1ccc(F)cc1 (configuration not stated) | inactive: 2.9%
Cc1cc(C)n(S(=O)(=O)/C=C/c2ccccc2)n1 | inactive: -5.8%
Cc1cccc(NC(=O)CC(C)S(=O)(=O)c2ccc3c(c2)NC(=O)CO3)c1C (configuration not stated) | inactive: -13.3%
CCC(C)NC(=O)CC(NS(=O)(=O)c1ccc(Cl)cc1)c1ccco1 (configuration not stated) | inactive: -11.5%
CCN(CC)c1ccc(/C=C2/C(=O)N(c3ccc([N+](=O)[O-])cc3)N=C2N2CCOCC2)cc1 | inactive: -6.1%
CC(=O)N1c2ccc(C)cc2C(c2ccccc2)CC1C (configuration not stated) | inactive: -22.4%
CCOc1ccc(NC(=O)Cn2nnc(C(=O)NCc3ccco3)c2N)cc1 | inactive: -12.2%
C=C(C(=O)c1ccccc1)C(CC(=O)c1ccccc1)c1ccccc1 (configuration not stated) | inactive: -101%
O=C(Cn1ncc(Cl)c(Cl)c1=O)N1CCN(S(=O)(=O)c2ccc3ccccc3c2)CC1 | inactive: -103%
COC(=O)c1ccccc1NC(=O)CSc1nc(Nc2ccccc2)nc(N2CCOCC2)n1 | inactive: -43.1%
Cc1ccc(CCNC(=O)C2CCN(S(=O)(=O)c3ccc4c(c3)NC(=O)CO4)CC2)cc1 | inactive: -4.08%
Cn1c(SCc2ccccc2C#N)nc2ccccc2c1=O | inactive: -13.4%
Cc1cc(C)c(S(=O)(=O)n2ccc(-c3ccc(OCCN(C)c4ccccn4)cc3)n2)c(C)c1 | inactive: -10.9%
CCn1nc(C)cc1-c1nnc(Sc2ncc([N+](=O)[O-])s2)n1C | inactive: -111%
Fc1ccccc1NC(=S)N1CCN(c2ccccn2)CC1 | inactive: 9.96%
CCN(CC(=O)NC(C)C)Cc1nc2sc3c(c2c(=O)[nH]1)CCC3 | inactive: -23.6%
Cc1cc(C)n(-c2cc(=O)n(C)c(=O)n2C)n1 | inactive: 12%
CCCCCCNC(=O)CNC(=S)N(Cc1cccs1)C1CCCCC1 | inactive: -77.1%
O=S(=O)(c1ccccc1)c1ncc(C(F)(F)F)cc1Cl | inactive: -104%
COc1ccc(OC)c(S(=O)(=O)Nc2ccccc2O)c1 | inactive: -3.47%

SMILES | activation
C/C=C(/C)C(=O)Nc1cccc(C2=NOC3(C2)C[C@@H](C(N)=O)N(C(=O)CC)C3)c1 (some centres not stated) | inactive: -7%
OCC1(Cc2cccc(C(F)(F)F)c2)CCN(Cc2cc3ccccc3o2)CC1 | inactive: -20.1%
O=C(Nc1nccs1)c1cccc(N2C(=O)c3cccc4c([N+](=O)[O-])ccc(c34)C2=O)c1 | inactive: -101%
Cc1cc(F)c(F)c(C(=O)N2CCOCC2)c1Cl | inactive: 7.96%
Cc1ccc(S(=O)(=O)n2c(=O)oc3ccccc32)cc1 | inactive: -7.52%
Cc1c(C(=O)N(Cc2ccncc2)CC2CCCO2)oc2c(F)cccc12 (configuration not stated) | inactive: 0.128%
COc1ccc(CN(C)Cc2c(O)ccc3ccccc23)cc1 | inactive: -3.48%
COc1cccc(OC)c1OCCNCC1COc2ccccc2O1 (configuration not stated) | inactive: -4.24%
O=C(CSC1CS(=O)(=O)c2cc([N+](=O)[O-])ccc21)NNC(=O)c1ccc(Cl)cc1 (configuration not stated) | inactive: 7.22%
CSCC[C@H](NC(=O)N1CCn2c1nc1ccccc12)C(=O)NCc1ccc(F)cc1 | inactive: -9.38%
Cc1ccc(-c2[nH]ncc2C(=O)c2ccc(Br)cc2)c(O)c1 | inactive: 7.31%
O=C(CCc1nnc(CCCCc2ccccc2)o1)NCCN1CCCCC1=O | inactive: 3.82%
CCCN1CCN(C(=O)c2ccc(Sc3ccc(C)cc3)c(NC(C)=O)c2)CC1 | inactive: -11.2%
CCOC(=O)c1c(C)sc2c1N(C(=O)CN(CC)CC)c1ccccc1S2 | inactive: -8.47%
COc1ccc(CCN2C(=O)C3C(C2=O)C2C=CC3C23CC3)cc1OC (configuration not stated) | inactive: -3.1%
O=[N+]([O-])c1cc([N+](=O)[O-])c(N2CCOCC2)cc1NCc1ccccc1 | inactive: 6%
O=S(=O)(c1ccc(Cl)cc1)N1CCC2(CC1)OCCN2S(=O)(=O)c1cccs1 | inactive: -35.6%
CCOc1ccc(S(=O)(=O)c2c(C(=O)c3ccccc3)cnc3cc4c(cc23)OCCO4)cc1 | inactive: 7.45%
CCc1ccccc1NS(=O)(=O)c1cc2c3c(c1)CCN3C(=O)CC2 | inactive: 2.03%
COc1ccc(N2C(=O)CSC2c2ccncc2)cc1 (configuration not stated) | inactive: 6.7%
O=C(CCc1ccc(S(=O)(=O)N2CCOCC2)cc1)N1CCN(Cc2ccc3c(c2)OCO3)CC1 | inactive: 7.24%

Among those listed so far, 2 have a COOH group:
SMILES | activation
O=C(O)c1cccc(S(=O)(=O)N2CCC(n3nnc4cc(C(F)(F)F)ccc43)CC2)c1 | inactive: 8.8%
CC(CCC(=O)O)C1CC[C@H]2C3CCC4CC(=O)CCC4(C)[C@H]3CC(=O)C12C (some centres not stated) | inactive: 18%
